This list was built around the results that the source calls inconclusive (neither active nor inactive); the mix of calls is not that of the screen. A potency beside an inconclusive call is a rough fit, not a confirmed value. Activity calls are given as the source filed them. The call rests on the fitted dose curve; in most records, active means well fitted curve in the direction sought with a large enough effect; inconclusive means small, poorly fitted or top-dose-only effect, or another doubt; inactive means no such curve, though single readings can be large or run the other way.
Target: Protein phosphatase EYA2 (Homo sapiens) (UniProt O00167)
Assay: Inhibitors of Eya2ED: Hit Confirmation in Primary Screen
Details: Recombinant Eya2ED, OMFP fluorescence phosphatase assay
Excerpt: The Eya proteins (Eya1-4) were originally identified as essential co-activators of the Six1 transcription factor. […] Knockdown of Six1 decreases cancer cell proliferation and metastases in several different cancer models. […] A fluorescence-based HTS assay has been perfomed against the Molecular Libraries Small Molecule Repository (MLSMR) and has the AID 488837 in this database. After completion of the primary screen, hits were re-ordered and tested again in the primary screen in a 12 point titration. NIH Chemical Genomics Center [NCGC] NIH Molecular Libraries Probe Centers Network [MLPCN] MLPCN Grant: DA030559-01 Assay Submitter (PI): Rui Zhao, University of Colorado, Denver
The Eya2 enzyme was kindly provided by the laboratory of Dr. Rui Zhao. The 3-O-methyl-fluorescein phosphate (OMFP) substrate and all buffer reagents were purchased from Sigma Aldrich. qHTS Assay Setup: 1. Buffer- 50 mM HEPES pH 7.5, 50 mM NaCl, 5 uM MgCl2, 0.05% BSA, 1 mM DTT. 2. OMFP Stock- 10 mM solution prepared in 100% DMSO and stored in single use aliquots at -20C. Assay Procedure- 1. Dispense 1.5 ul per well of Eya2 at 0.2 uM in black medium binding 1536 well Greiner plate 2. Transfer 23 nl of compound and control compound (EGTA) to plate 3. Incubate at ambient for 10 minutes 4. Dispense 1.5 ul per well of OMFP at 50 uM 5. Incubate at ambient for 10 minutes 6. Read on ViewLux using Excitation = 485 nm, Emission = 525 nm

Amino acid sequences for entries named in this document (tags omitted). A change or cut given only in a name is not applied to a line headed by its entry.
UniProt O00167: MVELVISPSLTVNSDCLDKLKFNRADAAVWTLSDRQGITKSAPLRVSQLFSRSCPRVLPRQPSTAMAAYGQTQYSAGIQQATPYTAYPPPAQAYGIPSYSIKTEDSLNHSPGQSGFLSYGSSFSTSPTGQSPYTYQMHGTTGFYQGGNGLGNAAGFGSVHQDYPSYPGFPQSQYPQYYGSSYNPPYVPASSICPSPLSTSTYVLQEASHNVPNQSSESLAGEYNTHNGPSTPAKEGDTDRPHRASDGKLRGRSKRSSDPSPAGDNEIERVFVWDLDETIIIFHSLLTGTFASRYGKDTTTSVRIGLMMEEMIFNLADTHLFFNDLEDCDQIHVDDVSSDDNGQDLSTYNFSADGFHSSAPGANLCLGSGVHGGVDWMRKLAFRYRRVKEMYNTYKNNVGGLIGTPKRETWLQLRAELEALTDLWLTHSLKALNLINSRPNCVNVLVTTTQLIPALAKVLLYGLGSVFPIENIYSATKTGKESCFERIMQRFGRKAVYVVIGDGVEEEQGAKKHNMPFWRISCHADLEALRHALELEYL

SMILES | Potency
C#CCOCCOCCOCCNc1nc(N2CCN(C(=O)CCCCCCCCCCNC(=O)[C@H](CCCCN)n3cc(C)nn3)CC2)nc(N2CCN(C(=O)CCCCCCCCCCNC(=O)[C@H](CCCN=C(N)N)n3cc(C[C@@H](C)CC)nn3)CC2)n1 | active: 18.4 µM
O=C(N/N=C\c1ccc(Sc2ccccn2)o1)c1cccc(Br)c1 | active: 1.84 µM
CC(C)(O)CC[C@@H](O)[C@](C)(O)[C@H]1CC[C@@]2(O)C3=CC(=O)[C@@H]4C[C@@H](O)[C@@H](O)C[C@]4(C)[C@H]3CC[C@]12C | inconclusive: 733 µM [inhibitor, partial curve, poor fit]
O=S(=O)(c1ccc(F)cc1)N1CCC2(CC1)OCCN2S(=O)(=O)c1cccs1 | inactive
O=S(=O)(Cc1ccccc1Cl)N1CCN(Cc2ccc3c(c2)OCO3)CC1 | inactive
O=C(C1CCC(=O)N(C2CCCC2)C1)N1CCC(Oc2cccc(F)c2)CC1 (stereo not given) | inactive
Cc1nnc(SC(C)C(=O)Nc2ccc3ccccc3c2)[nH]c1=O (stereo not given) | inactive
CC1CC(=O)Nc2ccccc2N1C(=O)CN1CCN(C=O)CC1 (stereo not given) | inconclusive: 582 µM [inhibitor, partial curve, poor fit]
COC(=O)C1OC(OC2CC[C@]3(C)C(CC[C@@]4(C)[C@@H]3CC=C3[C@@H]5CC(C)(C)CC[C@]5(C(=O)OC5OC(CO)C(O)C(O)C5O)CC[C@]34C)C2(C)C)C(O)C(O)C1O[C@H]1OCC(O)C(O)C1O (stereo not given in full) | inactive
O=[N+]([O-])c1ccc(/C=N/Nc2ccnc3cc(Cl)ccc23)o1 | inconclusive: 116 µM [inhibitor, partial curve]
Cc1ccc(NC(=O)CC2C(=O)NC3CCCCC3N2C(=O)c2ccc(F)cc2)cc1C (stereo not given) | inactive
COC(=O)c1ccc(NC(=O)c2nc(S(=O)(=O)Cc3cccc(C)c3)ncc2Cl)cc1 | inconclusive: 582 µM [inhibitor, partial curve, poor fit]
CCOc1ncccc1C(=O)Nc1ccccc1N1CCOCC1 | inconclusive: 232 µM [inhibitor, partial curve, poor fit]
CC(=O)Nc1ccc(S(=O)(=O)NCc2ccc3[nH]c(C)cc3c2)cc1 | inconclusive: 292 µM [inhibitor, partial curve, poor fit]
CN1CCN(C(=O)C23CCC(C)(C(=O)C2Br)C3(C)C)CC1 (stereo not given) | inconclusive: 292 µM [inhibitor, partial curve, poor fit]
O=c1[nH][nH]c(-c2ccccc2)c1C=Nc1ccccc1Cl | inconclusive: 184 µM [inhibitor, partial curve]
CC1CN(S(=O)(=O)c2ccc(C(=O)Nc3nnc(-c4ccco4)o3)cc2)CC(C)O1 (stereo not given) | inactive
CC(=O)Nc1ccccc1OCc1nnc(-c2ccc(Cl)cc2)o1 | inconclusive: 232 µM [inhibitor, partial curve, poor fit]
CCN(CC)S(=O)(=O)c1ccc(OC)c(NC(=O)c2cc([N+](=O)[O-])ccc2Cl)c1 | inconclusive: 146 µM [inhibitor, partial curve]
O=C(CCCC(=O)N(CC(=O)NC1CCCCC1)c1ccccc1F)Nc1ccccn1 | inactive

Two records drawn at random from those above, as already listed:
SMILES | Potency
CCOc1ncccc1C(=O)Nc1ccccc1N1CCOCC1 | inconclusive: 232 µM [inhibitor, partial curve, poor fit]
O=C(C1CCC(=O)N(C2CCCC2)C1)N1CCC(Oc2cccc(F)c2)CC1 (stereo not given) | inactive

The list continues:

SMILES | Potency
O=C(OC1CCOC1=O)c1cc(Cl)ccc1[N+](=O)[O-] (stereo not given) | inconclusive: 292 µM [inhibitor, partial curve]
COc1ccc(NC(=O)CSc2nc3[nH]c(=O)[nH]c(=O)c3s2)cc1OC | inactive
O=C(NCCN1CCCCCC1)C1CCCN1S(=O)(=O)c1cccc2nsnc12 (stereo not given) | inconclusive: 582 µM [inhibitor, partial curve, poor fit]
Cc1cc2cc(CCNS(C)(=O)=O)c(=O)[nH]c2cc1C | inconclusive: 232 µM [inhibitor, partial curve]
O=C(COc1ccc(Nc2ccccc2)cc1)OCC(=O)N1CCCCC1 | inconclusive: 146 µM [inhibitor, partial curve, poor fit]
COc1cc2c(cc1OC)CN(c1nc(-c3cccnc3)nc3ccccc13)CC2 | inconclusive: 184 µM [inhibitor, partial curve]
Cn1c(=O)c(C(=O)Nc2ncccc2O)c(O)c2ccccc21 | inactive
COC(=O)CCC(=O)Nc1ccc(OC)cc1 | inconclusive: 463 µM [inhibitor, partial curve, poor fit]
C=CCCC(=O)NC1CC(C)(C)Cc2c1cnn2-c1cccc(F)c1 (stereo not given) | inconclusive: 232 µM [inhibitor, single point]
COc1ccc(/C=C(\C#N)C(=O)OCC(=O)N2CC(C)OC(C)C2)cc1 (stereo not given) | inactive
CCN(C(=O)COC(=O)c1cc(OC)c(OC)cc1[N+](=O)[O-])C1CCS(=O)(=O)C1 (stereo not given) | inactive
CCOC(=O)C1CCCN(c2c(NCCN3CCCCC3C)c(=O)c2=O)C1 (stereo not given) | inconclusive: 116 µM [inhibitor, partial curve, poor fit]
COc1ccc2c(c1)[C@H]1[C@H](CO2)[C@H](c2ccccc2)[C@]2(C)C(=O)Nc3ccc(F)cc3C(=O)N12 | inactive
COCCn1c(C)cc(C(=O)COC(=O)/C=C/c2cccc(OC)c2)c1C | inconclusive: 184 µM [inhibitor, single point]
Cc1cc(C)n(CC(=O)n2c3c(c4ccccc42)CCCC3)n1 | inconclusive: 116 µM [inhibitor, single point]
COc1ccc(-c2noc(CCC(=O)NC3CCCCC3)n2)cc1OC | inactive
C(=N\Nc1ccc2nncn2n1)/c1ccco1 | inconclusive: 92.3 µM [inhibitor, partial curve, poor fit]
C=CCOc1nc2c(c(=O)n(C)c(=O)n2C)n1Cc1ccc(Cl)cc1Cl | inconclusive: 292 µM [inhibitor, partial curve]
O=C(CC(c1ccccc1)c1ccccc1)Nc1ccc(Cl)cn1 | inactive
CC[n+]1ccc(C)c2cc(P(=O)(c3ccccc3)c3ccccc3)ccc21 | inconclusive: 923 µM [inhibitor, partial curve, poor fit]
